Measured values reported in PubChem BioAssay AID330 (DTP/NCI, 2004).
The list does not hold the whole screen: it gathers tests that were run many times, whatever their T/C, doses with no T/C, and many T/C values between a quarter and a half above the control. Other doses and runs of a compound stand elsewhere. T/C is the treated group as % of the vehicle group. Some entries give survivors of the animals treated and no T/C: the source holds a T/C of zero for them, seemingly a mark for toxic or unscored doses. Some survivor counts are full or nearly so, which does not show that the dose was tolerated: the source hardly ever lists a survival T/C far under the control, and the zero likely stands for such cases as well. Survivors were counted at the toxicity check, usually on the fifth day, unless a day is given; later deaths do not show. Schedules are NCI's codes, read here as Q, the interval in days (D) or hours (H), X, the number of doses. Some entries hold several experiments; the results are listed from low to high. For survival time, this PubChem deposit counts one and a half times the control or more as active, and values a quarter to a half above the control carry no call in these data; other NCI protocols may use other cut-offs. Some T/C values carry the count of animals alive at the toxicity check (mostly the fifth day); where none is given, no animal had died by that day.

System: P388 leukemia ip, CD2F1 mice, survival T/C
Assay: NCI In Vivo Anticancer Drug Screen. Data for tumor model P388 Leukemia (intraperitoneal) in CD2F1 (CDF1) mice
Conditions: T/C endpoint: median survival time, higher T/C = longer survival
[1] = dose: 100.0 mg/kg/injection, schedule: Q01DX009 (ip), vehicle: saline with Tween-80
[2] = dose: 200.0 mg/kg/injection, schedule: Q01DX009 (ip), vehicle: saline with Tween-80
[3] = dose: 400.0 mg/kg/injection, schedule: Q01DX009 (ip), vehicle: saline with Tween-80
[4] = dose: 50.0 mg/kg/injection, schedule: Q01DX005 (ip), vehicle: saline with Tween-80
[5] = dose: 100.0 mg/kg/injection, schedule: Q01DX005 (ip), vehicle: saline with Tween-80
[6] = dose: 200.0 mg/kg/injection, schedule: Q01DX005 (ip), vehicle: saline with Tween-80
[7] = dose: 100.0 mg/kg/injection, schedule: Q01DX009 (ip), vehicle: Klucel (hydroxypropylcellulose) (HPC)
[8] = dose: 200.0 mg/kg/injection, schedule: Q01DX009 (ip), vehicle: Klucel (hydroxypropylcellulose) (HPC)
[9] = dose: 100.0 mg/kg/injection, schedule: Q01DX005 (ip), vehicle: Klucel (hydroxypropylcellulose) (HPC)
[10] = dose: 400.0 mg/kg/injection, schedule: Q04DX002 (ip), vehicle: saline
[11] = dose: 240.0 mg/kg/injection, schedule: Q01DX005 (ip), vehicle: saline with Tween-80
[12] = dose: 200.0 mg/kg/injection, schedule: Q01DX005 (ip), vehicle: Klucel (hydroxypropylcellulose) (HPC)
[13] = dose: 100.0 mg/kg/injection, schedule: Q01DX009 (ip), vehicle: saline
[14] = dose: 50.0 mg/kg/injection, schedule: Q01DX009 (ip), vehicle: saline
[15] = dose: 200.0 mg/kg/injection, schedule: Q01DX009 (ip), vehicle: saline
[16] = dose: 120.0 mg/kg/injection, schedule: Q01DX005 (ip), vehicle: saline with Tween-80
[17] = dose: 240.0 mg/kg/injection, schedule: Q01DX005 (ip), vehicle: Klucel (hydroxypropylcellulose) (HPC)

With `CCCC[As](CCCC)SC1CC(OC(=O)c2ccccc2)C(OC(=O)c2ccccc2)C(COC(=O)c2ccccc2)O1` (stereo not drawn) the survivor count (dose: 100.0 mg/kg/injection, schedule: Q01DX009 (ip), vehicle: saline + alcohol) was 2 of 6 and the survivor count (dose: 200.0 mg/kg/injection, schedule: Q01DX009 (ip), vehicle: saline + alcohol) was 0 of 6.

For `ClC(Cl)Oc1ccccc1`, the survivor count [1] was 1 of 6, the survivor count [2] was 0 of 6 and the survivor count [3] was 0 of 6.

`CCCCCCCCCCCCCCCCCCOC(=O)C(N)CCCCN` (stereo not drawn) was tested, and the survivor count (dose: 120.0 mg/kg/injection, schedule: Q01DX005 (ip), vehicle: saline) was 2 of 6 and the survivor count (dose: 240.0 mg/kg/injection, schedule: Q01DX005 (ip), vehicle: saline) was 0 of 6.

For `CCCCC(CCCCCC(CCCC)C1NCCc2cc(OC)c(OC)cc21)C1NCCc2cc(OC)c(OC)cc21` (stereo not drawn), the survivor count [4] was 2 of 5, the survivor count [5] was 0 of 5 and the survivor count [6] was 0 of 5.

For `CCSC(=S)Nc1nc2ccc(C)cc2s1`, the survivor count (dose: 50.0 mg/kg/injection, schedule: Q01DX009 (ip), vehicle: Klucel (hydroxypropylcellulose) (HPC)) was 6 of 6, the survivor count [7] was 6 of 6 and the survivor count [8] was 3 of 6.

With `CCCN=C(c1ccccc1C=O)c1c2ccccc2cn1CCC` the survivor count (dose: 60.0 mg/kg/injection, schedule: Q01DX005 (ip), vehicle: saline + Tween-80 + alcohol) was 1 of 6, the survivor count (dose: 120.0 mg/kg/injection, schedule: Q01DX005 (ip), vehicle: saline + Tween-80 + alcohol) was 0 of 6 and the survivor count (dose: 240.0 mg/kg/injection, schedule: Q01DX005 (ip), vehicle: saline + Tween-80 + alcohol) was 0 of 6.

With `C[CH2][Sn]([CH2]C)([O]S(=O)(=O)CC12CCC(CC1=O)C2(C)C)[O]S(=O)(=O)CC12CCC(CC1=O)C2(C)C` the T/C (dose: 6.25 mg/kg/injection, schedule: Q01DX009 (ip), vehicle: saline) was 130 % of control, the T/C (dose: 12.5 mg/kg/injection, schedule: Q01DX009 (ip), vehicle: saline) was 135 % of control and the T/C (dose: 25.0 mg/kg/injection, schedule: Q01DX009 (ip), vehicle: saline) was 133 % of control [5 of 6 alive].

With `CC(=O)CCC(=O)c1ccoc1` the survivor count (dose: 50.0 mg/kg/injection, schedule: Q01DX005 (ip), vehicle: Klucel (hydroxypropylcellulose) (HPC)) was 0 of 5 and the survivor count [9] was 0 of 5.

With `O=C1C=CC(=Nc2cc3c(cc2Br)-c2ccccc2C3=O)O1` the T/C (dose: 12.5 mg/kg/injection, schedule: Q01DX005 (ip), vehicle: saline with Tween-80) was 125 % of control and the survivor count [6] was 1 of 6.

In the case of `Cc1cc(C)c(S(=O)(=O)Sc2nnnn2C)c(C)c1`, the survivor count [7] is reported as 3 of 6.

For `OCC1CCCN1` (stereo not drawn), the survivor count [10] was 0 of 6.

In the case of `O=c1c(O)cccn1C1OC(CO)C(O)C1O` (stereo not drawn), the survivor count (dose: 400.0 mg/kg/injection, schedule: Q01DX005 (ip), vehicle: saline) is reported as 6 of 6.

For `C[n+]1cccc(/C=N/O)c1`, the survivor count [10] was 3 of 6.

With `CC(=O)Nc1ccc(N=NN(C)c2ccccc2)cc1` the survivor count (dose: 200.0 mg/kg/injection, schedule: Q01DX001 (ip), vehicle: saline) was 0 of 6.

In the case of `COc1ccc(C(=O)N2C(=O)CCC2=O)cc1`, the T/C [8] is reported as 126 % of control.

For `C[Si](C)(C)CCCNCCNCCC[Si](C)(C)C`, the survivor count [11] was 1 of 6.

In the case of `CCCCN(CCCC)CCNc1ccc(C)c2sc3ccc(Cl)cc3c(=O)c12`, the survivor count [4] is reported as 5 of 5, the survivor count [5] is reported as 5 of 5 and the survivor count [6] is reported as 5 of 5.

`CN1CCCc2cccc(c2)CCC1` was tested, and the survivor count [9] was 0 of 6 and the survivor count [12] was 0 of 6.

`C(=C\c1cc2ccc(C3=NCCN3)cc2[nH]1)/c1ccc2cc(C3=NCCN3)[nH]c2c1` was tested, and the survivor count [9] was 1 of 5 and the survivor count [12] was 0 of 5.

`NCC(=O)NC1(C(=O)O)CCCC1` was tested, and the T/C [13] was 134 % of control.

With `O=C1c2ccccc2C(Cl)=C(Cl)C1(Cl)Cl` the survivor count (dose: 50.0 mg/kg/injection, schedule: Q01DX009 (ip), vehicle: saline with Tween-80) was 4 of 6.

`ON=C1C2C=CC=CC1C=C2` was tested, and the survivor count [14] was 5 of 6, the survivor count [13] was 1 of 6 and the survivor count [15] was 0 of 6.

In the case of `CC(C)CCC(=O)c1ccoc1`, the survivor count (dose: 7.5 mg/kg/injection, schedule: Q01DX005 (ip), vehicle: saline with Tween-80) is reported as 1 of 6 and 3 of 6, the survivor count (dose: 15.0 mg/kg/injection, schedule: Q01DX005 (ip), vehicle: saline with Tween-80) is reported as 0 of 6 and the survivor count (dose: 30.0 mg/kg/injection, schedule: Q01DX005 (ip), vehicle: saline with Tween-80) is reported as 0 of 6. The survivor count (dose: 60.0 mg/kg/injection, schedule: Q01DX005 (ip), vehicle: saline with Tween-80) was 0 of 6, the survivor count [16] was 0 of 6 and the survivor count [11] was 0 of 6.

With `O=[N+]([O-])c1ccc(-c2sc(-c3ccccc3)nc2O)cc1` the survivor count [1] was 6 of 6.

In the case of `COc1ccc(/C=C/C(=N/NC(=O)c2ccccc2)C(C)CN(C)C)cc1` (stereo not drawn), the survivor count [17] is reported as 0 of 6.

In the case of `Cc1c(C)c(C)c2c(c1C)C1(C)C=CC2(C)N1C`, the survivor count (dose: 100.0 mg/kg/injection, schedule: Q04DX002 (ip), vehicle: saline with Tween-80) is reported as 0 of 6, the survivor count (dose: 200.0 mg/kg/injection, schedule: Q04DX002 (ip), vehicle: saline with Tween-80) is reported as 0 of 6 and the survivor count (dose: 400.0 mg/kg/injection, schedule: Q04DX002 (ip), vehicle: saline with Tween-80) is reported as 0 of 6.

`C=C1C(=O)OC2C(O)CCCC12` (stereo not drawn) was tested, and the survivor count (dose: 200.0 mg/kg/injection, schedule: Q04DX003 (ip), vehicle: Klucel (hydroxypropylcellulose) (HPC)) was 3 of 6.

With `CCCCCCCCCCCCCCCCOc1ccc(/C=N/Nc2ccccc2)cc1OC` the survivor count [2] was 6 of 6.

For `CC1SCC(=O)N1c1nncs1` (stereo not drawn), the T/C [17] was 145 % of control.

In the case of `O=[N+]([O-])c1cn(CCNc2c3ccccc3nc3ccccc23)cn1`, the survivor count [16] is reported as 0 of 6 and the survivor count [11] is reported as 0 of 6.

For `O=C1c2ccccc2C(=O)c2c1cc1cccccc2-1`, the survivor count (dose: 25.0 mg/kg/injection, schedule: Q01DX005 (ip), vehicle: saline with Tween-80) was 6 of 6, the survivor count [4] was 6 of 6 and the survivor count [5] was 6 of 6.

For `COc1cc(OC)c2cc(-n3nnc4cc([N+](=O)[O-])ccc43)c(=O)oc2c1`, the survivor count [16] was 6 of 6 and the survivor count [11] was 6 of 6.

With `COc1cc2c(cc1OC)C13CC(=O)N(C(C)=O)N1CCCN3C2=O` (stereo not drawn) the survivor count (dose: 60.0 mg/kg/injection, schedule: Q01DX005 (ip), vehicle: Klucel (hydroxypropylcellulose) (HPC)) was 6 of 6.

`C1CC2OC2CC1C1CO1` (stereo not drawn) was tested, and the survivor count [3] was 3 of 6.

For `CC1CCCC2COCN12` (stereo not drawn), the T/C (dose: 100.0 mg/kg/injection, schedule: Q01DX005 (ip), vehicle: saline) was 125 % of control.

With `CCOC(=S)SCC(=O)C1(O)Cc2c(O)c3c(c(O)c2C(OC2CC(N)C(O)C(C)O2)C1)C(=O)c1c(OC)cccc1C3=O` (stereo not drawn) the T/C (dose: 6.25 mg/kg/injection, schedule: Q01DX009 (ip), vehicle: other) was 131 % of control, the survivor count (dose: 12.5 mg/kg/injection, schedule: Q01DX009 (ip), vehicle: other) was 4 of 6 and the survivor count (dose: 25.0 mg/kg/injection, schedule: Q01DX009 (ip), vehicle: other) was 0 of 6. The survivor count (dose: 300.0 mg/kg/injection, schedule: Q04DX003 (ip), vehicle: other) was 1 of 3.

With `CCCC[N+]1(CC)CCCCC1` the survivor count [14] was 0 of 6, the survivor count [13] was 0 of 6 and the survivor count [15] was 0 of 6.
